In patent US20190248902A1:
Results are given in words; binding and its absence hold for the method and conditions named. Some entries that bind do so weakly or less than the wild type.

Amino acid sequences for entries named in this document (tags omitted). A change or cut given only in a name is not applied to a line headed by its entry.
UniProt P07306: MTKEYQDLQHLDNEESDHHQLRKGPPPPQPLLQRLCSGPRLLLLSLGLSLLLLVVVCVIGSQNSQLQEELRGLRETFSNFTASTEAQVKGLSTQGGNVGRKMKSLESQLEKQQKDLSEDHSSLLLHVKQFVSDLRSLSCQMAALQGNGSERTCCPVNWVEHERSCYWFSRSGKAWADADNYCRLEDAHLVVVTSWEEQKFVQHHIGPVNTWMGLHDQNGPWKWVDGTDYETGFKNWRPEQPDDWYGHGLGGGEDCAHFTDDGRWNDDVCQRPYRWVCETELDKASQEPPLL

molecular target: ASGR-1 on HEPG2 Cells (human) (UniProt P07306); assay: FACS or high content imaging on HepG2 cells; Y = signal at least 2x irrelevant IgG

Binder	binding
197G3 (antibody, V domains shown) VH: QVQLVESGGGVVQPGRSLRLSCVASGFTFSSHGMHWVRQAPGKGLEWVAVIWYDGSNKNYADSVKGRFTISRDNSKNTLYLQMNSLRAEDTAVYYCARDPSVGYDGMDVWGQGTTVTVSS VL: DIQMTQSPSSLSASVGDRVTITCRASQGIGNHLAWFQQKPGKAPKSLIYAASSLQSGVPSKFSGSRSGTDFSLTISSLQPEDFATYYCQQYSNYPVTFGPGTKVDIK	binds
198G3 (antibody, V domains shown) VH: QVQLVESGGGVVQPGRSLKLSCAASGFTFSTYGMHWVRQAPGKGLEWVAVIWYDGTNKNYADSVKGRFTISRDNSKNTLCLQMNSLRAEDTAVYYCARDQGVGYDGLDVWGQGTTVTVSS VL: DIQMAQSPSSLSASVGDRVTITCRTSQGIGKYLAWFQQKPGKAPKSLLYKASSLQGGVPSKFSGSGSGTDFTLTISSLQPEDFATYYCQQYMTYPLTFGGGTKVEIK	binds
218G4 (antibody, V domains shown) VH: QVQLVESGGGVVQPGRSLRLSCAASGFTFSSYGLHWVRQAPGKGLEWVAVIWYDGSNKYYADSVKGRFTISRDNSKNTLYLQMNSLRVEDTAVYYCANWYYYYYGMDVWGQGTTVTVSS VL: QSVLTQPPSVSAAPGQKVTISCSGSSSNIGNNYVSWYQQLPGTAPKLLLYDSNKRPSGIPARFSGSKSGTSATLGITGLQTGDEADYYCGTWDSSLNTVVFGGGTKLTVL	binds
193E7 (antibody, V domains shown) VH: QVQLQQWGAGLLKPSETLSLTCAVYGGSFSGYFWTWIRQPPGKGLEWIGEINHSGSTNYNPSLKSRVTISVDTSKNQFSLKLSSVTAADTAVYYCARDYGADYWGQGTLVAVSA VL: DIQMTQSPSSLSASVGDRVTITCRASQGIRNDLGWYQQKPGKAPKRLIYSASSLQRGVPSRFSGSGSGTEFTLTISSLQPEDFATYYCLQHKRYPLTFGGGTKVEIK	binds
198D2 (antibody, V domains shown) VH: QVQLVESGGGVVQPGRSLRLSCAASGFTFRSYGMHWVRQAPGKGLEWVAVIIYDGSYKYYADSVKGRFTISRDNSKNTLYLQMNSLRAEDTAVYYCARTYSGGMDVWGQGTTVTVSS VL: QSVLTQPPSVSAAPGQKVTISCSGSSSNIGSNYVSWYQQLPGTAPKVLIYDNNKRPSGIPDRFSGSKSGTSATLGITGLQTGDEADYYCGTWDSRLNVGVFGGGTKLTVL	binds
202A3 (antibody, V domains shown) VH: QVQLEQSGAEVKKPGASVKVSCKASGYTFTSYDINWVRQATGQGLEWLGWMNPKRGNTGYAQKFQGRVTMTRNTSISTAHMELSSLRSEDTAVYYCARGRYSREDYYYYYDMDVWGQGTTVTVSS VL: DIQMSQSPSSLSASVGDRVTITCRASQGIRNDLGWYQQKPGKAPKRLICAASRLQSGVPSRFSGSGSGTEFTLTISSLQPEDFAIYYCLQHHDYPFTFGPGTKVDIK	binds
7E11 (antibody, V domains shown) VH: QVQLVESGGGVVQPGRSLRLSCAASGFTFSSFGMHWVRQAPGKGLEWVAIIWHDGSNKYYADSVKGRFTISRDNSNNTLYLQMSSLRAEDTAVYYCARDLSMGGMDVWGQGTTVTVSS VL: DIQMTQSPSSLSASVGDRVTIACRASQNIISYLNWYQQKPGKAPKFLIYTASSLQSGVPSRFSGSGSGTDFTLTISSLQPEDFAIYYCQQTYSTPLTFGGGTKVEIK	binds
22G5 (antibody, V domains shown) VH: EVQLLESGGGLVQPGGSLRLSCAASGFTFSSYAMNWVRQAPGMGLEWVSVISRSGGYTYYADSVKGRFTISRDNSKNTLYLQMNSLRAEDTAVYYCASRLAVAGSEAFDIWGQGTLVTVSS VL: DIQMTQSPSSLSASVGDRVTITCRASQNISSYLNWYQQKQGKAPKLLIYAASSLQNGVPSRFSGRGSGTDFTLTISSLQPEDFATYYCQQSYRTPLFTFGPGTKVDFK	binds
5E5 (antibody, V domains shown) VH: QVQLVESGGGVVQPGRSLRLSCAASGFTFSNYVMHWVRQAPGKGLEWVAVIWYDGSNKYYADSVKGRFTISRDNSKNTLYLQMNSLRAEDTAVYYCTREVYSSGWYDYGMDVWGQGTTVTVSS VL: DIQMTQSPSSLSASVGDRVTITCRASQGIRNDLGWYQQKPGKAPKRLIYAASSLQSGVPSRFSGSGSGTEFTLTISSLQPEDFATYYCLQHYSYPRTFGQGTKVEVK	binds
6G7 (antibody, V domains shown) VH: QVQLVESGGGVVQPGRSLRLSCAASGFTFSSYGMHWVRQTPGKGLEWVAIISYVGKNKYYADSVKGRFTISRDNSKNTLYLQMNSLRAEDTAVYYCARRGNSYGGYGMDVWGQGTTVTVSS VL: DIQMTQSPSSRSASVGDRVTITCQASQDISNYLNWCQQKPGKALKLLIYDASTLETGVPSRFSGSGSGTDFTFTISSVQPEDIATYYCQQYDNVPITFGQGTRLEIK	binds
176H4 (antibody, V domains shown) VH: QVQLVESGGGVVQPGRSLRLSCAASGFTFSSYGMHWVRQAPGKGLEWVAIIWYDGSYKYYADSVKGRFTISRDNSKNTLYLQMSSLRAEDTAVYYCARDAHDFWSGYFAYWGQGALVTVSS VL: DIVMTQTPLSLSVTPGQPASISCKSSQSLLHGDGKTYLYWYLQKPGQPPQLLIYEVSNRFSGVPDRFSGSGSGTDFTLKISRVEAEDVGIYYCMQSIQIPWTFGQGTRVEIK	binds
194C10 (antibody, V domains shown) VH: QVQLQQWGAGLLKPSETLSLTCAVSGGSFRYYYWSWIRQPPGKGLEWFGEINHSGSTNYNPSLKSRVTISIDTSKNQFSLKLRSVTAADTAVYYCARDYGAFDIWGQGTMVTVSS VL: EIVLTQSPGTLSLSPGERATLSCRASPSVNSGYLAWYQQKPGQTPRLLIFGASSRATGIPDRFSASGSGADFTLTISRLEPEDFAVYFCQQYESSPWTFGQGTKVEIK	binds
25A4 (antibody, V domains shown) VH: QVLLVQSGAEVKRPGASVKVSCKASGYTFTNYDINWVRQATGQGLEWMGWMYPNSGNTGYAQKFQGRVTMTRNTSISTAYMELSSLRSEDTAVYYCASSSGWYYFDYWGQGTLVTVSS VL: DIVMTQFPDSLAVSLGERATIKCKSSQSVLYSSHNNNYLAWYQQKPGQPPKLLLYWASTRESGVPDRFSGSGSGTEFTLTISSLEAEDVAVYYCQQYYSTPPTFGQGTKVEIK	binds
4A2 (antibody, V domains shown) VH: QVQLVQSGTEVKKPGASVKVSCKASGYTFTNYDINWVRQATGQGLEWMGWMHPNSGNTGYAQKFQGRVTLTRNTSISTAYMELSSLRSEDTAVYYCASSSGWYYFDYWGQGTLVTVSS VL: DIVMTQSPDSLAVSLGERATINCKSSQSILHSSNNNNYLAWFQQKPGQPPKLLLYWASTRESGVPDRFSGSGSGTDFTLTISSLQPEDVAVYYCQQYYNTPVTFGPGTKVGIK	binds
4H6 (antibody, V domains shown) VH: QVQLVQSGAEVKKPGASVKVSCKASGYTFTDYYLHWVRQAPGQGLEWMGWIHPNSGGTNYAQKFQGRVTMTRDTSISTAYMGLSSLRSDDTAVYYCARDGTSSFDYWGQGTLVTVSS VL: DIQMTQSPSSVSASVGDRVTITCRASQGISRWLAWYQQKPGKAPKLLIYGASSLQSGVPSRFSGSGSGTDFTLTISSLQPEDFAIYYCQQANSFPFTFGPGTKVDIK	binds
56E5 (antibody, V domains shown) VH: QVQLVQSGAEVKKPGASVKVSCQASGYTFTGYHMHWVRQAPGQGLEWMGWINPNNNATNYAQKFQGRVTMTRDTSISTAYMELRRLRSDDTAVYHCARDGTSSFDYWGQGTLVTVSS VL: DIQMTQSPSSVSASVGDRVTITCRASQGIRKWLAWYQQKPGKAPKLLIYAASSLQSGVPSRFSGSGSGTDFTLTISSLQPEDFATYYCQQANSFPFTFGPGTKVDIK	binds
7F4 (antibody, V domains shown) VH: QLQLQESGPGLVKPSETLSLTCTVSGGSISRSSYYWGWIRQPPGKGLEWIGNIYYSGATYYNPSLKSRVTISVDTSTNQFSLKLSSVTAADTAVYYCARHSGSWSLDYWGQGTLVTVSS VL: DIQMTQSPSSLSASVGDRVTITCRTSQGIRNDLGWYQQKPGKAPKRLIYAASNLQSGVPSRFSGSGSGTEFTLTISSLQPEDFATYYCLQHSAYPLTFGGGTKVEIK	binds
7G4 (antibody, V domains shown) VH: QVQLVESGGGVVQPGRSLRLSCAASGFTFNNYVMHWVRQAPGKGLEWVAVIWYDGSNKYYADSVKGRFTISRDNSKNTLYLQMTSLRAEDTAVYYCAREKYSSNWYDYGMDVWGQGTTVTVSS VL: DIQMTQSPSSLSASVGDRVTITCRASQGIRNDLGWYQQRPGKAPKRLIYAASSLQSGVPSRFSGSGSGTEFTLTISSLQPEDSATYYCLHQYSYPRTFGQGTKVEIK	binds
48B12 (antibody, V domains shown) VH: EVQLLESGGGLVQPGGSLRLSCAASGFTFSSYAMNWVRQAPGKGLEWVSAISGRGGNTFYADSVKGRFTISRDNSKNTLYLQMNSLRAEDTAVYYCAKRETYNWNYEGFDYWGQGTLVTVSS VL: SYELTQPPSVSVSPGQTARITCSGDALPKKYAYWYQQKSGQAPVLVIYEDSKRPSGIPERFSGSSSGTMATLTISGAQVEDEADYYCNSTDSSGNHVVFGGGTKLTVL	binds
184E7 (antibody, V domains shown) VH: QVQLVQSGAEVKTPGASVKVSCRASGYTFTSYNMHWVRQVPGQGLEWMGWINPNNGGSNYTQKFQGRVTMTRDTSISTAYMELSRLRSDDTAVYYCARKFGDWGQGTLVTVSS VL: DIQMTQSPSSRSASIGERVTITCRASQGISNYLAWIQQKPGTAPKSLIYAASSLQSGVSSRFSGSGFGTDFTITISSVQREDFATYYCQQYNGYPFTFGHGTKVDIK	binds
194A4 (antibody, V domains shown) VH: QVQLVQSGTEVKKPGASLKVSCKASGYTFTVYYLNWVRQAPGQGLEWMGWINPNSGGTNYAQKFQGRVTMTRDTSISTAYMELSRLRSDDTAVYYCARGYDILTGWGQGTLVTVSS VL: EIVLTQSPGTLSLSPGERATLSCRASRGVSNIYLAWYQQKPGQAPRLLIYGASNRATGIPDRFSGSGSGTDFTLTISRLEPEDFAVYYCQHNDYSMFTFGPGTKVDIK	binds
4B1 (antibody, V domains shown) VH: QVQLQESGPGLVKPSETLSLTCSVSGDSISSYSWSWIRQPAGKGLEWIGRIYTSGSTNYIPSLKSRITMSVDTSKKQFSLKLSSVTAADTAVYYCARDLKSSGCLFFDYWGQGTLVTVSS VL: DIQMTQSPSSLSASVGDRVTITCRASHTIRTYLNWYQQKPGKAPKLLIYAASSLQSGVPSRINGSGSGTDFTLTITNLQPEDFATYYCQQSYNISFTFGPGTKVDIK	binds
